Assay results published in publication doi:10.1101/2025.08.22.671827.
No constants are given. Whether binding was seen depends on the method and setting. Binding seen in cells or lysates may run through a third protein. Some entries that bind do so weakly or less than the wild type.

Target: T1, Full-length wild-type Drs2 (yeast) (UniProt P39524)
T1 sequence: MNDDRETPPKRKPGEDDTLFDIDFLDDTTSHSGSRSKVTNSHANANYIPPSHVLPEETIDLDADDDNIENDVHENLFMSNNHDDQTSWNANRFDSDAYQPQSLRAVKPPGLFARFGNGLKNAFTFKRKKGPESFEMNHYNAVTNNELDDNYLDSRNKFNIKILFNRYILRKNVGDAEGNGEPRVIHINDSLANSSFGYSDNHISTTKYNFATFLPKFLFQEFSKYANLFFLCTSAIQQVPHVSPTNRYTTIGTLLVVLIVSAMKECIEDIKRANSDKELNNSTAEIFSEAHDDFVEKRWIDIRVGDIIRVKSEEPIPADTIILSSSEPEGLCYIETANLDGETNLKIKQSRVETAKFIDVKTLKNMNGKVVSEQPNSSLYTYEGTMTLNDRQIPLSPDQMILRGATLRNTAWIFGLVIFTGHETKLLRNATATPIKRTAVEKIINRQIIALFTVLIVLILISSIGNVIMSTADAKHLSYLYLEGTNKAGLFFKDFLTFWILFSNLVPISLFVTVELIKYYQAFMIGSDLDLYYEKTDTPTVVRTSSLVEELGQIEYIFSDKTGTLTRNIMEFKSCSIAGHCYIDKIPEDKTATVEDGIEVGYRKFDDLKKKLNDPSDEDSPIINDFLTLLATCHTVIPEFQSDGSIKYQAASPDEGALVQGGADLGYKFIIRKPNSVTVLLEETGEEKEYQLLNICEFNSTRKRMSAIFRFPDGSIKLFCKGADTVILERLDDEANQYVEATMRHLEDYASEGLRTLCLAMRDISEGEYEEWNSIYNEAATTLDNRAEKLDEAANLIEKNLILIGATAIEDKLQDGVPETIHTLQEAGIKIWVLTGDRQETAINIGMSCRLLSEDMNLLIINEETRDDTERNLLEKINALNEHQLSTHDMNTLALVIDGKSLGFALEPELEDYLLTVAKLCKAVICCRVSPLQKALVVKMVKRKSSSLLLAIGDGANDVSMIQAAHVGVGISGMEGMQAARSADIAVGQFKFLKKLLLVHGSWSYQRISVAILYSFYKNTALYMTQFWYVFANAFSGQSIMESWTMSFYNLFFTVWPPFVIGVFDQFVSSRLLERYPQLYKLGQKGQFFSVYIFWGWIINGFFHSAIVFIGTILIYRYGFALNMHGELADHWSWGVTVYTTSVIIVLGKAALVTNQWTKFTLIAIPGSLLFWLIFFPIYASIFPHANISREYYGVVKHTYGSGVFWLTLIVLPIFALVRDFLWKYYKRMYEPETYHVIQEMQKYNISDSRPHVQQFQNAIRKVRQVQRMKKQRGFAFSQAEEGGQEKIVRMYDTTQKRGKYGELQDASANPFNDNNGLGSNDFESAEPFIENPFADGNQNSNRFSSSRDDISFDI
Test: pull-down + SEC

binding: binds
B1: Cdc50 (protein, UniProt P25656 1-391)
chain: MVSLFKRGKAPPLTKEGPTSKKPPNTAFRQQRLKAWQPILSPQSVLPLLIFVACIFTPIGIGLIVSATKVQDLTIDYSHCDTKASTTAFEDIPKKYIKYHFKSKVENKPQWRLTENENGEQSCELQFEIPNDIKKSIFIYYKITNFYQNHRRYVQSFDTKQILGEPIKKDDLDTSCSPIRSREDKIIYPCGLIANSMFNDTFSQVLSGIDDTEDYNLTNKHISWSIDRHRFKTTKYNASDIVPPPNWMKKYPDGYTDENLPDIHTWEEFQVWMRTAAFPKFYKLTLKNESASLPKGKYQMNIELNYPISLFGGTKSFVLTTNGAIGGRNMSLGVLYLIVAGLCALFGIIFLVKLIFQPRAMGDHTYLNFDDEENEDYEDVHAENTTLREIL
